Results published in doi:10.1101/2025.11.29.691178.
These are yes or no findings as the source states them, for the method shown. For some of these results: In cells and extracts the contact can be indirect. Some results given as binding are weak or reduced against the parent protein; the word gives no strength.

The chains behind the UniProt entries cited, without tags or fusion partners. Where a name states a change or a piece, a line headed by the entry shows the natural chain unless it says otherwise. Residues count along the entry.
UniProt P02730: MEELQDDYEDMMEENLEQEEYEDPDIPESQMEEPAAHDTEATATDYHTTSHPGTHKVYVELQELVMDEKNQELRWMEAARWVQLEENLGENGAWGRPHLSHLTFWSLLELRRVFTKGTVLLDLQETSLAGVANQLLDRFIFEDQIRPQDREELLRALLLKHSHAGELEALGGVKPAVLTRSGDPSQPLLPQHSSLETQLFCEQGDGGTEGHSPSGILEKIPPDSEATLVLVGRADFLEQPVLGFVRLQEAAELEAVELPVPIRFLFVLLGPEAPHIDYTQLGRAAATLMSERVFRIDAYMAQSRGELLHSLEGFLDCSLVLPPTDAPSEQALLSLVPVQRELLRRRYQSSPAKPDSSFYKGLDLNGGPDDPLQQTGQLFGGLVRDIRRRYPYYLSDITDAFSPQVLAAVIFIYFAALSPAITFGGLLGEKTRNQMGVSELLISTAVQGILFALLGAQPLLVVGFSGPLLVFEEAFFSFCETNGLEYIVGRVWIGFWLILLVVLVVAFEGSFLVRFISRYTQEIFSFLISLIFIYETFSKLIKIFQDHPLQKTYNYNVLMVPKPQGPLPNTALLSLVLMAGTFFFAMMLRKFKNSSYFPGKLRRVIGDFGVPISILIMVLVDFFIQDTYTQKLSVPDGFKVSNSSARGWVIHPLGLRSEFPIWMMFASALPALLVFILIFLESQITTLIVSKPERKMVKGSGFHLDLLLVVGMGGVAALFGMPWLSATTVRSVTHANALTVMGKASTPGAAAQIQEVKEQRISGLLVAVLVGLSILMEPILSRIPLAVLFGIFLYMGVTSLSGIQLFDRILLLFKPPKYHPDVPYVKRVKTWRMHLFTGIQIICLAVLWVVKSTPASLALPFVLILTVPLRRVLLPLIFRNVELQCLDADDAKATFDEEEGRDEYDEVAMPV
Band 3 (SLC4A1) residues 57-379, recombinant: residues 57-379 of P02730
Band 3 (SLC4A1) residues 350-391, recombinant: residues 350-391 of P02730

Columns and labels:
[1] = target: Band 3 (SLC4A1), endogenous in human red blood cells (human (endogenous in RBCs)) (UniProt P02730); experiment: cross-linking
[2] = target: Band 3 (SLC4A1), endogenous in human red blood cells (human (endogenous in RBCs)) (UniProt P02730); experiment: proximity ligation
[3] = target: Band 3 (SLC4A1) residues 350-391, recombinant (human) (UniProt P02730); experiment: cross-linking
[4] = target: Band 3 (SLC4A1) residues 57-379, recombinant (human) (UniProt P02730); experiment: cross-linking

B1: biliverdin reductase B (BLVRB), endogenous in human red blood cells (enzyme, UniProt P30043 1-206)
chain: MAVKKIAIFGATGQTGLTTLAQAVQAGYEVTVLVRDSSRLPSEGPRPAHVVVGDVLQAADVDKTVAGQDAVIVLLGTRNDLSPTTVMSEGARNIVAAMKAHGVDKVVACTSAFLLWDPTKVPPRLQAVTDDHIRMHKVLRESGLKYVAVMPPHIGDQPLTGAYTVTLDGRGPSRVISKHDLGHFMLRCLTTDEYDGHSTYPSHQYQ
B1 was tested, and the binding [1] was “binds” and the binding [2] was “binds”.

B2: human biliverdin reductase B (BLVRB), recombinant, full length (enzyme, UniProt P30043 1-206)
chain: MAVKKIAIFGATGQTGLTTLAQAVQAGYEVTVLVRDSSRLPSEGPRPAHVVVGDVLQAADVDKTVAGQDAVIVLLGTRNDLSPTTVMSEGARNIVAAMKAHGVDKVVACTSAFLLWDPTKVPPRLQAVTDDHIRMHKVLRESGLKYVAVMPPHIGDQPLTGAYTVTLDGRGPSRVISKHDLGHFMLRCLTTDEYDGHSTYPSHQYQ
In the case of B2, the binding [3] is reported as “no binding” and the binding [4] is reported as “no binding”.
